# Results of single-concentration screens

Mtb glucose medium: 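Growth of Mycobacterium tuberculosis over 3 days (7H9 medium with glucose and tyloxapol); the read-out is not stated. Compounds at 50 µM. Direction is inferred from retests: higher values go with more growth inhibition. About 69,000 compounds were tested under these conditions; 1.1% (about 760) showed 50% or more at least once.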
Mtb cholesterol medium: 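Phenotypic screen: M. tuberculosis growth, cholesterol and DPPC medium, 4 days; the read-out is not stated. Tested at 50 µM. Higher reads as more growth inhibition (inferred: compounds with an IC50 in retests scored well above the rest). Of about 69,000 compounds tested this way, about 370 (0.54%) reached 50% or more in at least one test.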

The filed quantity is “Percent Effect” (%). How 0% and 100% were set is not recorded. Most values in the screen are low, and negative values occur. This is an unselected part of the compounds tested. Two or more numbers in one place are separate tests of the same structure; such repeats can differ widely.

Compound	Mtb glucose medium	Mtb cholesterol medium
Cc1cc(CNc2cc(Cl)ccc2OCCS(C)(=O)=O)no1	17.61	7.347
Cc1ccc(-n2nc(C)c3c(C)cc(OCC(=O)NC(C)C)nc32)cc1	8.885	-19.42
O=C1CCc2cc(C(=O)NCc3ccc(Cl)s3)ccc2N1	8.494	-7.736
CC(C)CNC(=O)c1ccc(NC(=O)NC(C)C)cc1Cl	7.425 & 2.181	-5.663
CC(NC(=O)COc1ccccc1C(=O)O)c1ccc(F)cc1 (stereo not drawn)	-18.71	-25.11
Cl.Cl.Fc1ccc2c(c1)C1(CCNCC1)CC2NC1CC1 (stereo not drawn)	1.126	-6.225
O=C1CCC2(CCCN(C(=O)Cc3cccs3)C2)N1 (stereo not drawn)	-31.71	-4.007
CN(C)CCn1c2c(ccc1=O)CCN(C(=O)c1ccoc1)CC2.O=C(O)C(F)(F)F	-15.73	-5.153
COc1ccnc(N2CCN(C(=O)c3ccc(Cl)o3)CC2)n1	8.808	-9.935
CN(Cc1nc(-c2cccnc2)no1)C(=O)c1c2c(nn1C)CCCC2	-24.8	1.273
O=C1Nc2ccccc2CN(CC2CC2)C12CCNC2 (stereo not drawn)	46.51	4.779
CN(C)CCNC(=O)c1nc2c(o1)CN(C(=O)c1cccnc1)C2.O=C(O)C(F)(F)F.O=C(O)C(F)(F)F	-36.9 & -7.893	-28.28
COCC1(Nc2nc(C)nc3c2cnn3C)CCCC1	-24.62	-26.16
Cc1ncc2c(n1)CN(CCCc1ccccc1)CC2	-3.409	-5.932
Cc1cccc(CC(=O)N2CCCC(N(C)CCCN(C)C)C2)c1 (stereo not drawn)	15.32	3.535
O=C(c1cc[nH]n1)N(Cc1ccccc1)CC1CCC1	42.22	-1.8
CN1CCN(c2cnn(CCn3cccn3)c(=O)c2)CC1	12.51	0.2327
O=C(Cc1cccc(F)c1)NCCNCc1cccc(O)c1	10.77	-4.473
COc1cc(N2CCC3(CC2)CN(C)C(=O)CO3)ncn1	-26.03	-23.17
Cc1cn[nH]c1C1COCCN1S(=O)(=O)c1cn[nH]c1 (stereo not drawn)	4.941	-1.708
CCOC(=O)c1cn(CC(O)c2ccccc2OC)nn1 (stereo not drawn)	22.75	18.17
CC(C)[C@@H]1CN(CC(=O)NCc2ccco2)C[C@H]1NS(=O)(=O)N(C)C	32.05	3.42
NC(=O)c1ccc(C2CCCN2C(=O)Cn2nc3ccccc3n2)s1 (stereo not drawn)	-6.589	-3.53
CC(=O)Nc1nc(C(=O)N2CCCCC2Cn2cc(C)cn2)cs1 (stereo not drawn)	20.36	11.83
CC(C)c1cc(C(=O)N2CCC3(CC2)c2ccccc2[C@@H](N)[C@@H]3O)cs1	-11.28	0.2504
O=C(CN(CC(O)c1ccc(F)cc1)C1CC1)NC1CCOCC1 (stereo not drawn)	1.736	-2.189
Cn1c(CN2CCCCC2)nnc1C1CCCN(c2ccncc2F)C1 (stereo not drawn)	-32.25	-19.5
Fc1cccc(C(NCc2ncc[nH]2)c2ccccc2)c1 (stereo not drawn)	25.99 & 19.5	-4
CNC(=O)c1cc2c(nc1NCC(C)C)CCN(S(C)(=O)=O)CC2	-0.7851 & -13.82	-7.936 & -1.986
CCC(CO)N(Cc1cccnc1)C(=O)c1ccncc1F (stereo not drawn)	-5.47	-5.529
CCN1CCCC1CNC(=O)CCc1cccs1 (stereo not drawn)	10.9	4.978 & 10.55
CCc1nccn1CCCNC(=O)c1cnn(-c2ccccc2OC)c1	-26.96	-4.08
CCc1cc(C(=O)N2CCCC2c2nc(O)cc(CC)n2)on1 (stereo not drawn)	0.1217	-1.194
Cc1nc(C)n(CC2CCCN(c3ccc(C#N)cn3)C2)n1 (stereo not drawn)	-14.17	21.24
CC(=O)N1CCC2(CC1)CC(NS(C)(=O)=O)c1ccccc1O2 (stereo not drawn)	0.01951	-29.51
CO[C@@H]1CCC[C@@H](NC(=O)CCCn2cncn2)[C@H]1O	-23.68	9.806 & -0.008706
Cc1oc(C)c(C(=O)NCc2cccnc2)c1C	8.316	-3.274
NC(=O)C1CCN(C(=O)c2ccn(-c3ccc(F)cc3)n2)CC1	-64.22 & -9.706	-21.36
CCCc1ccc(S(=O)(=O)Nc2ccc(=O)n(C)c2)cc1	-44.06 & -1.204	1.64
O=C(O)C(F)(F)F.O=C(O)C(F)(F)F.O=C1NC2(CCN(Cc3nccs3)CC2)CC1c1ccncc1 (stereo not drawn)	-2.176	-1.819
Cn1cnnc1C1CCCN(C(=O)c2cc(Cl)cc(Cl)c2)C1 (stereo not drawn)	7.552	-7.29
Cc1cc(NC(=O)Cn2ccc(=O)c3ccccc32)[nH]n1	19.78	-6.478
COCCCNC(=O)c1cc(C(C)C)nc(N2CCCC2)n1	-3.17	-24.57
O=S(=O)(c1cccs1)N1CCN(Cc2nc(-c3ccco3)cs2)CC1	15.63	-10.98
CCS(=O)(=O)N1C[C@@H](O)[C@H](N(C)Cc2ccc(F)cc2)C1	-16.06	-1.97 & 2.168
Cc1cc(C)c(-n2cccn2)c(CN2CCOCC(CN(C)C)C2)c1 (stereo not drawn)	-9.669 & 6.61	-2.72
CCN(C)C1CCCc2nc(C)sc21 (stereo not drawn)	-2.857	-2.035
Cc1cc(C(=O)N2CCN(c3nc4c(C(C)C)cccc4s3)CC2)no1	48.31	51.22
Cl.c1nc(CCC2CCCN2)cc(N2CCCCCC2)n1 (stereo not drawn)	-4.153	-13.82
Cc1nc(-c2ccsc2)ccc1C(=O)N(C)CC(F)(F)F	14.93	18.8
CCn1ncc2c1CN(C(=O)c1cscn1)CC2COC.O=C(O)C(F)(F)F (stereo not drawn)	3.614	-10.63
CCOCCn1c(=O)[nH]c2cc(C(=O)N(C)CCc3cn[nH]c3)ccc21	-1.822	26.36
CC(CNc1cncc(-n2cccn2)n1)N(C)c1ccccc1 (stereo not drawn)	39.63	13.93
CCCc1nc(CN2CCOC(Cn3cccn3)C2)no1 (stereo not drawn)	-8.308	-1.433
Cn1nnc2c1C(COCc1ccccn1)CN(Cc1ccoc1)C2.O=C(O)C(F)(F)F.O=C(O)C(F)(F)F (stereo not drawn)	-3.188	12.09
Fc1ccc(-c2c[nH]c([C@@H]3COCCN3)n2)cc1	1.478 & 7.071	-12.22
O=C(O)C(F)(F)F.O=C(c1cnccn1)N1CCC(F)(F)C2(CCN(c3ccccn3)C2)C1 (stereo not drawn)	1.1 & -3.708	-7.07 & 12.31
O=C(N1CCC(O)(C(F)(F)F)C1)C1(c2ccc(Cl)cc2)CC1 (stereo not drawn)	-13.24	-17.61
CC(=O)N1CC(C)CN(C(=O)c2cnccn2)c2ccccc21 (stereo not drawn)	13.39	-0.957 & -8.588
CCCn1cc(NC(=O)c2ccc(NC(=O)NC3CC3)cc2)ccc1=O	10.9	6.19
COCC(=O)N1CCCCC1c1nc(C)c2c(n1)N(C1CC1)C(=O)CC2 (stereo not drawn)	26.02	15.71

For reference, 6 entries once more:

{"compound": "O=C1CCc2cc(C(=O)NCc3ccc(Cl)s3)ccc2N1", "Mtb glucose medium": 8.494, "Mtb cholesterol medium": -7.736}
{"compound": "CC(C)[C@@H]1CN(CC(=O)NCc2ccco2)C[C@H]1NS(=O)(=O)N(C)C", "Mtb glucose medium": 32.05, "Mtb cholesterol medium": 3.42}
{"compound": "Cn1nnc2c1C(COCc1ccccn1)CN(Cc1ccoc1)C2.O=C(O)C(F)(F)F.O=C(O)C(F)(F)F", "stereo": "stereo not drawn", "Mtb glucose medium": -3.188, "Mtb cholesterol medium": 12.09}
{"compound": "CCOC(=O)c1cn(CC(O)c2ccccc2OC)nn1", "stereo": "stereo not drawn", "Mtb glucose medium": 22.75, "Mtb cholesterol medium": 18.17}
{"compound": "Fc1ccc(-c2c[nH]c([C@@H]3COCCN3)n2)cc1", "Mtb glucose medium": "1.478 & 7.071", "Mtb cholesterol medium": -12.22}
{"compound": "CNC(=O)c1cc2c(nc1NCC(C)C)CCN(S(C)(=O)=O)CC2", "Mtb glucose medium": "-0.7851 & -13.82", "Mtb cholesterol medium": "-7.936 & -1.986"}

The values are deposited in ChEMBL (CHEMBL3988442, “University of Dundee, Small-Polar-MMV Screening Library” (2021)).